Article PMC6364008
Results are given in words; binding and its absence hold for the method and conditions named. Binding seen in cells or lysates may run through a third protein. Some entries that bind do so weakly or less than the wild type.

Sequences of proteins named here, by UniProt entry; tags and fusion partners are left off.
UniProt Q9UBN7: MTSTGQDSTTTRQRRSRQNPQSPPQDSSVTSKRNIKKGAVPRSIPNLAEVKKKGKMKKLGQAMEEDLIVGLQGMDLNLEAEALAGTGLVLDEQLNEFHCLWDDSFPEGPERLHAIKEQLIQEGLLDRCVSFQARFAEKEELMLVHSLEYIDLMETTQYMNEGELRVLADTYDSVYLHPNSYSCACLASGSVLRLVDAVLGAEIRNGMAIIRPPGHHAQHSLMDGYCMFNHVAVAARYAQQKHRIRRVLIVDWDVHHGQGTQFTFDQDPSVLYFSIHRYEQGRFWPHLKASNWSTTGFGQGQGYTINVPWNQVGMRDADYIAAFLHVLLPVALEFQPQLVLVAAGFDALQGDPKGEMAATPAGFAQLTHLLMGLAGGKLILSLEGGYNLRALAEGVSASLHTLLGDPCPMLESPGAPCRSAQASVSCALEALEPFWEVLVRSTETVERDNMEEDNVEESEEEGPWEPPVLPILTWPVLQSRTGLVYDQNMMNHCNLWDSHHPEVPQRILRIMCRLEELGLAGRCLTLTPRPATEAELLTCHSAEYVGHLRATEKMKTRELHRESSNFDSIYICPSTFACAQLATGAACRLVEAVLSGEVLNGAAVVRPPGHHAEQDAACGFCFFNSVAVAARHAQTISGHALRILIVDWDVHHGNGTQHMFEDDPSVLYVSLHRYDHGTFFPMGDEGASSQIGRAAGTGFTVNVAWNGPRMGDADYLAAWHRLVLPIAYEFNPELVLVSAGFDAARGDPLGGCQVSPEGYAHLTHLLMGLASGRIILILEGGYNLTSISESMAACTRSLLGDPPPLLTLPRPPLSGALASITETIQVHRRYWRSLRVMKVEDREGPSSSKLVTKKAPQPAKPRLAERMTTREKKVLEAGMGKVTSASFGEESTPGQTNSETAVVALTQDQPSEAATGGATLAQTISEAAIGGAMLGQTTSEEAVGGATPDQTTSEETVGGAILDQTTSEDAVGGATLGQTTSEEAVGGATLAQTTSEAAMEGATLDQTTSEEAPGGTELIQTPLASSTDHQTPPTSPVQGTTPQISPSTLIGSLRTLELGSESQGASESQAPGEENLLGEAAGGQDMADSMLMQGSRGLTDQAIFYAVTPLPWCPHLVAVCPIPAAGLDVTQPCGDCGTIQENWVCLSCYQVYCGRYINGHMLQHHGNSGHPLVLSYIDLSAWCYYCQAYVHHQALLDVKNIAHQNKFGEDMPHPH
UniProt P15682: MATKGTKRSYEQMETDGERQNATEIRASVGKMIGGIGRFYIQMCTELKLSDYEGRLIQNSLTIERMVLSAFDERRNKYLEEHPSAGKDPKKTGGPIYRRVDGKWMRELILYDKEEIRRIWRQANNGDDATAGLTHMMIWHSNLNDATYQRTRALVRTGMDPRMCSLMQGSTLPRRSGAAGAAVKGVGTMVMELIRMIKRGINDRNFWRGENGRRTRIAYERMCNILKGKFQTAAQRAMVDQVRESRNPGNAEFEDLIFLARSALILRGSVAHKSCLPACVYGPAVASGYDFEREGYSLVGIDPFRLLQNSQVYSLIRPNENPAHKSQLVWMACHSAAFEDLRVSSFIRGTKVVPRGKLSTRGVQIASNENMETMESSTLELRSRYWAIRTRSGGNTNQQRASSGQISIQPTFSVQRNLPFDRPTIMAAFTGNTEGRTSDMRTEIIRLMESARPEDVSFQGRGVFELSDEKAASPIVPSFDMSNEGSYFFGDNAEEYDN

Biological target: Flag-HDAC6 (histone deacetylase 6), expressed in 293T cells (human) (UniProt Q9UBN7)
Test: co-IP

In the case of “NP (nucleoprotein of influenza A virus strain WSN), expressed in 293T cells (from UniProt P15682 1-498)”, the binding is reported as “binds”.
